Results: publication PMC3812021
Results are given in words; binding and its absence hold for the method and conditions named. In cells and extracts the contact can be indirect. Some entries that bind do so weakly or less than the wild type.

Amino acid sequences for entries named in this document (tags omitted).
UniProt Q09472: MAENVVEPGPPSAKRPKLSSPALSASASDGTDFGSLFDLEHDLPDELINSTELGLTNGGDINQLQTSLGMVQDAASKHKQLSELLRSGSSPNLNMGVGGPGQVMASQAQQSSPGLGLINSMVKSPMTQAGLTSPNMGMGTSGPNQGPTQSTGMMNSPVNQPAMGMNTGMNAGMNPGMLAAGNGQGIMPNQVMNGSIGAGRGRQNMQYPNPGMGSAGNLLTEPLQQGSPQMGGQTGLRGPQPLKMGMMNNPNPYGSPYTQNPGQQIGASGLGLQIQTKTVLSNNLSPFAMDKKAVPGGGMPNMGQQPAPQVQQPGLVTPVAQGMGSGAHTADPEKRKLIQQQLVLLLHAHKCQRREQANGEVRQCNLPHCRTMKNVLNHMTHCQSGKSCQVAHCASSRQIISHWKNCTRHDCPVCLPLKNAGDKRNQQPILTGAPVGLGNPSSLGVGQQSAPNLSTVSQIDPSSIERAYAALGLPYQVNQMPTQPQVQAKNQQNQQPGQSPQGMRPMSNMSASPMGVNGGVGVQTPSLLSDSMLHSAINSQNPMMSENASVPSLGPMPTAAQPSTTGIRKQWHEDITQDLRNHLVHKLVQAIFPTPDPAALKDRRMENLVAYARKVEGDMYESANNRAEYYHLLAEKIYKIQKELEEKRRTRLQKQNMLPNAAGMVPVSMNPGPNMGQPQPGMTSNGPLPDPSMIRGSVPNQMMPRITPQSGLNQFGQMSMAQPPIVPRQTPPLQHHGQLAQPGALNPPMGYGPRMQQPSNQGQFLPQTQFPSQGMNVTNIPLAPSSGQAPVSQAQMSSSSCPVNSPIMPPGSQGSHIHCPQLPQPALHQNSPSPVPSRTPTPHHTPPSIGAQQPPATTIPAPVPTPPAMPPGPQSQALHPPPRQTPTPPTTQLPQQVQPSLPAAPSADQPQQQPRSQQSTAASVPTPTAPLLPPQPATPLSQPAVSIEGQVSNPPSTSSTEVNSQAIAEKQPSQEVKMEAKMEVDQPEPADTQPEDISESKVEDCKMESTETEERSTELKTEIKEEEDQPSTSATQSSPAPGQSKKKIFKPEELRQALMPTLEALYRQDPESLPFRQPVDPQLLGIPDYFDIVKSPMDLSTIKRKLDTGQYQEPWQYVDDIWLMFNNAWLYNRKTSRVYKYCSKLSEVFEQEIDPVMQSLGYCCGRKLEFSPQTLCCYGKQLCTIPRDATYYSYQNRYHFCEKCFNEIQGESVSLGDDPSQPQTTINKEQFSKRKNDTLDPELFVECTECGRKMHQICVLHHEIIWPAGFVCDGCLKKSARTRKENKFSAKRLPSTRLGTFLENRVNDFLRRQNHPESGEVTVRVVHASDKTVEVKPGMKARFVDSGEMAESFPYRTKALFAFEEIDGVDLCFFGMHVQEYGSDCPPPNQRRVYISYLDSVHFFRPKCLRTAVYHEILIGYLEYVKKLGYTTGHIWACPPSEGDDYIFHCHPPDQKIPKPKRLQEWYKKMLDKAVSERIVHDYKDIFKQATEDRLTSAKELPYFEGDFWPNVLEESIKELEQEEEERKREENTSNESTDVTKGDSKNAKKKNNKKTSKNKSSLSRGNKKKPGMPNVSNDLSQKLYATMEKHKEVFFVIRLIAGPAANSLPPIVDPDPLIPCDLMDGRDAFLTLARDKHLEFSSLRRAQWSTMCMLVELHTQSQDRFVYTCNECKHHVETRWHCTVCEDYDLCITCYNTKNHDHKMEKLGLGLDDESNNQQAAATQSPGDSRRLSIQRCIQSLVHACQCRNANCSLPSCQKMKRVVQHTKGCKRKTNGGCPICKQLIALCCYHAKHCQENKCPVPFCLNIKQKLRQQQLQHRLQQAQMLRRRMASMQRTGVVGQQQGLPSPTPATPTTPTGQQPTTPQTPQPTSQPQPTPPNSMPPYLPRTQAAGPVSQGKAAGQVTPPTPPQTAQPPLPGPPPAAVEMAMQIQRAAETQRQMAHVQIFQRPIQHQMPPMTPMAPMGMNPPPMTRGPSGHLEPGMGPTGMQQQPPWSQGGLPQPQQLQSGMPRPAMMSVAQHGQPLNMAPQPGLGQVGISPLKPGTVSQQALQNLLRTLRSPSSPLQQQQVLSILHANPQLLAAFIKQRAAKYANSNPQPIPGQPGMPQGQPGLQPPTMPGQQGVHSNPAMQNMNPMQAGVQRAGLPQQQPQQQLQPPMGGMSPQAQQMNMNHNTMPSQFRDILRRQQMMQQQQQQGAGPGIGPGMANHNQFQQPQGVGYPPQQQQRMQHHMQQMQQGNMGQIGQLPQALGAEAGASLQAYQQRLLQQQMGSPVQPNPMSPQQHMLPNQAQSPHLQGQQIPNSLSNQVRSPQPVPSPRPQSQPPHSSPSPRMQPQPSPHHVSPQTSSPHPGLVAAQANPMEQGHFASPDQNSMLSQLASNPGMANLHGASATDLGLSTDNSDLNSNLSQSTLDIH
UniProt Q15672: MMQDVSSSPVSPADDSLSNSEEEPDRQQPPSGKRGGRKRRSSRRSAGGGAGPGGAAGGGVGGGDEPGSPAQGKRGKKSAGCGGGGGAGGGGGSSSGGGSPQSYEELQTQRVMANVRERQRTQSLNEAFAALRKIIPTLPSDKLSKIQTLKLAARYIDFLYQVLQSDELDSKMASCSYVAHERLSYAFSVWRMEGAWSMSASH

Molecular target: p300 (human (endogenous in NCI-N87)) (UniProt Q09472)
Assay: co-IP; NCI-N87 cell lysate (50 mM Tris-HCl pH 7.3-7.5, 120 mM NaCl, 1 mM EDTA, 0.5% Triton X-100, protease inhibitors) incubated with 2.5 ug p300 antibody or IgG overnight at 4 C; protein A beads 4 h; four washes with lysis buffer; blot for Twist 1

binding: binds
Substance: Twist-related protein 1 (Twist1) (from UniProt Q15672 1-202)
